Assay [1] deals with Human full-length Rogdi (residues 1-287) (human) (UniProt Q9GZN7). In words: AUC; sedimentation equilibrium; 25 mM TRIS-HCl pH 7.5, 150 mM NaCl, 5 mM β-mercaptoethanol; 10, 15 and 20 μM protein; 10000, 20000 and 30000 rpm; 15 °C; fitted to a single species model; both purified.
For assay [2] the target is unchanged. In words: crystal structure; full-length Rogdi, space group R3, 2.8 Å, four copies in the asymmetric unit; crystals grown at 4 °C in 2 M NaCl, 130 mM MgCl2, 100 mM TRIS pH 7.0; both purified.
The target is the same in assay [3]. In words: SEC; Superdex 200 column; 25 mM TRIS, 150 mM NaCl, 5 mM DTT, pH 7.5; mass standards aldolase, ovalbumin, carbonic anhydrase, RNase A; both purified. On the technique in general: In gel filtration, larger molecules generally elute earlier.
The target in assay [4] is Human truncated Rogdi (tRogdi, residues 11-276) (human) (UniProt Q9GZN7). The assay can be described thus: AUC; sedimentation equilibrium; 25 mM TRIS-HCl pH 7.5, 150 mM NaCl, 5 mM β-mercaptoethanol; 10, 15 and 20 μM protein; 10000, 20000 and 30000 rpm; 15 °C; fitted to a single species model; both purified.
Assay [5] has the same target. The assay can be described thus: SEC; Superdex 200 column; 25 mM TRIS, 150 mM NaCl, 5 mM DTT, pH 7.5; mass standards aldolase, ovalbumin, carbonic anhydrase, RNase A; both purified.

Sequences of proteins named here, by UniProt entry; tags and fusion partners are left off. A change or cut given only in a name is not applied to a line headed by its entry.
UniProt Q9GZN7: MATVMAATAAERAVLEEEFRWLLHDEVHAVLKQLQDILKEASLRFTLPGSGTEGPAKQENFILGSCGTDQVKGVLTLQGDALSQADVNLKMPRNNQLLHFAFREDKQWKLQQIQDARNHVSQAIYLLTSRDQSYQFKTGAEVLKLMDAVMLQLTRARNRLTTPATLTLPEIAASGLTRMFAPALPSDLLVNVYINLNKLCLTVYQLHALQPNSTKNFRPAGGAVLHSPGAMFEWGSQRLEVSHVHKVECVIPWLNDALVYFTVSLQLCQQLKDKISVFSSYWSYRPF

These are yes or no findings as the source states them, for the method shown.

For “Human full-length Rogdi (residues 1-287) (from UniProt Q9GZN7 1-287)”, the binding entry in assay [1] is “no binding (tested: 10 μM, 15 μM, and 20 μM)”; in assay [2], “no binding”; in assay [3], “no binding”.
For “Human truncated Rogdi (tRogdi, residues 11-276) (from UniProt Q9GZN7 11-276) (domain or fragment)”, the binding result in assay [4] was “no binding (tested: 10 μM, 15 μM, and 20 μM)”; in assay [5] it was “no binding”.

For the origin of these results see paper PMC5479863.
